PubChem BioAssay AID686938 | Drosophila RNAi Screening Center | 2013
Screen: 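Looking for CRAC channel components and the factors controlling them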 (primary screen). Cells: Drosophila S2R+ cells. Knock-down reagent: long dsRNA against Drosophila genes, about 0.25 µg dsRNA per well, roughly 10,000 cells. Time to read-out: 5 days of knock-down before the calcium assay. Challenge: thapsigargin (SERCA pump blocker) to empty calcium stores; entry signal taken 4 min after adding it. Measured: 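Duplicate raw fluo-4 intensities per well from a plate reader, at rest and four minutes after thapsigargin emptied calcium stores; entry-to-rest ratio filled for only some wells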. Reading the numbers: calcium entry signal: higher = stronger calcium signal after store depletion; resting calcium signal: higher = higher resting calcium signal. Rule for the call: 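Called when the plate z-score of the entry-to-rest ratio, mean of duplicates, falls below −3; wells with low overall dye signal (Fmax z below −2) or more than five off-targets excluded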. Calls: active = strongly reduced calcium entry; inactive = no strong reduction.
The deposit covers about 23,000 reagents; this is a random part of those that have a named target and a result. Of all reagents, 75 (0.33%) are marked active. 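Raw plate signals without normalisation; calls rest on plate z-scores that were not deposited; ratio present for only 364 wells.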 Unmarked entries are inactive. Not given: the dose of the treatment.

With knock-down of Cpr49Ac (Cuticular protein 49Ac) [DRSC07199], the record shows calcium entry signal, replicate 1 (fluorescence units) = 4.00e7; calcium entry signal, replicate 2 (fluorescence units) = 4.63e7; resting calcium signal, replicate 1 (fluorescence units) = 1.78e7; resting calcium signal, replicate 2 (fluorescence units) = 2.16e7. Depletion of Vps4 (Vacuolar protein sorting 4) [DRSC19338] gave: calcium entry signal, replicate 1 (fluorescence units) = 3.24e7; calcium entry signal, replicate 2 (fluorescence units) = 3.99e7; resting calcium signal, replicate 1 (fluorescence units) = 2.39e7; resting calcium signal, replicate 2 (fluorescence units) = 2.51e7. Depletion of ana1 (anastral spindle 1) [DRSC16079] gave: calcium entry signal, replicate 1 (fluorescence units) = 3.63e7; calcium entry signal, replicate 2 (fluorescence units) = 2.64e7; resting calcium signal, replicate 1 (fluorescence units) = 1.66e7; resting calcium signal, replicate 2 (fluorescence units) = 1.23e7. ana1 (anastral spindle 1) [DRSC21825] showed calcium entry signal, replicate 1 (fluorescence units) = 3.63e7; calcium entry signal, replicate 2 (fluorescence units) = 3.28e7; resting calcium signal, replicate 1 (fluorescence units) = 1.89e7; resting calcium signal, replicate 2 (fluorescence units) = 1.53e7. Silencing of Prx6a (Peroxiredoxin 6a) [DRSC00565] resulted in: calcium entry signal, replicate 1 (fluorescence units) = 3.90e7; resting calcium signal, replicate 1 (fluorescence units) = 2.17e7. Depletion of CG34163 [DRSC01219] came out at: calcium entry signal, replicate 1 (fluorescence units) = 3.41e7; calcium entry signal, replicate 2 (fluorescence units) = 5.17e7; resting calcium signal, replicate 1 (fluorescence units) = 1.53e7; resting calcium signal, replicate 2 (fluorescence units) = 2.31e7.

With knock-down of Rgl (Ral guanine nucleotide dissociation stimulator-like) [DRSC11267], the screen gave calcium entry signal, replicate 1 (fluorescence units) = 3.11e7; calcium entry signal, replicate 2 (fluorescence units) = 3.48e7; resting calcium signal, replicate 1 (fluorescence units) = 1.63e7; resting calcium signal, replicate 2 (fluorescence units) = 1.58e7. Knock-down of whe (what else) [DRSC20537] came out at: calcium entry signal, replicate 1 (fluorescence units) = 4.29e7; calcium entry signal, replicate 2 (fluorescence units) = 3.95e7; resting calcium signal, replicate 1 (fluorescence units) = 2.08e7; resting calcium signal, replicate 2 (fluorescence units) = 1.73e7. Knock-down of Brd7-9 (Bromodomain containing 7/9) [DRSC03017] resulted in: calcium entry signal, replicate 1 (fluorescence units) = 5.73e7; resting calcium signal, replicate 1 (fluorescence units) = 2.97e7.

An excerpt taken from the entries so far, as a working copy:
whe (what else) [DRSC20537] → calcium entry signal, replicate 1 (fluorescence units): 4.29e7; calcium entry signal, replicate 2 (fluorescence units): 3.95e7; resting calcium signal, replicate 1 (fluorescence units): 2.08e7; resting calcium signal, replicate 2 (fluorescence units): 1.73e7
Brd7-9 (Bromodomain containing 7/9) [DRSC03017] → calcium entry signal, replicate 1 (fluorescence units): 5.73e7; resting calcium signal, replicate 1 (fluorescence units): 2.97e7

Additional reagents:
Against CG15484 [DRSC02494] the deposit lists calcium entry signal, replicate 1 (fluorescence units) = 5.39e7; calcium entry signal, replicate 2 (fluorescence units) = 5.06e7; resting calcium signal, replicate 1 (fluorescence units) = 2.50e7; resting calcium signal, replicate 2 (fluorescence units) = 2.30e7. Silencing of CG15484 [DRSC22836] resulted in: calcium entry signal, replicate 1 (fluorescence units) = 2.59e7; calcium entry signal, replicate 2 (fluorescence units) = 3.49e7; resting calcium signal, replicate 1 (fluorescence units) = 1.33e7; resting calcium signal, replicate 2 (fluorescence units) = 1.54e7. Silencing of CG9902 [DRSC20212] resulted in: calcium entry signal, replicate 1 (fluorescence units) = 2.44e7; calcium entry signal, replicate 2 (fluorescence units) = 3.05e7; resting calcium signal, replicate 1 (fluorescence units) = 1.37e7; resting calcium signal, replicate 2 (fluorescence units) = 1.38e7. Silencing of Exo84 (Exocyst 84) [DRSC15965] resulted in: calcium entry signal, replicate 1 (fluorescence units) = 4.13e7; calcium entry signal, replicate 2 (fluorescence units) = 5.02e7; resting calcium signal, replicate 1 (fluorescence units) = 2.19e7; resting calcium signal, replicate 2 (fluorescence units) = 2.08e7. CG12862 [DRSC06202] scored calcium entry signal, replicate 1 (fluorescence units) = 2.97e7; calcium entry signal, replicate 2 (fluorescence units) = 4.61e7; resting calcium signal, replicate 1 (fluorescence units) = 1.56e7; resting calcium signal, replicate 2 (fluorescence units) = 1.97e7. Knock-down of CG10543 [DRSC04081] gave: calcium entry signal, replicate 1 (fluorescence units) = 4.94e7; calcium entry signal, replicate 2 (fluorescence units) = 6.05e7; resting calcium signal, replicate 1 (fluorescence units) = 2.35e7; resting calcium signal, replicate 2 (fluorescence units) = 2.62e7.

CG10543 [DRSC23102] gave calcium entry signal, replicate 1 (fluorescence units) = 5.33e7; calcium entry signal, replicate 2 (fluorescence units) = 3.72e7; resting calcium signal, replicate 1 (fluorescence units) = 2.50e7; resting calcium signal, replicate 2 (fluorescence units) = 1.56e7. With knock-down of eEF1beta (eukaryotic translation elongation factor 1 beta) [DRSC07419], the record shows calcium entry signal, replicate 1 (fluorescence units) = 3.82e7; calcium entry signal, replicate 2 (fluorescence units) = 3.72e7; resting calcium signal, replicate 1 (fluorescence units) = 1.69e7; resting calcium signal, replicate 2 (fluorescence units) = 1.79e7. CG32767 [DRSC18386] scored calcium entry signal, replicate 1 (fluorescence units) = 4.19e7; calcium entry signal, replicate 2 (fluorescence units) = 3.33e7; resting calcium signal, replicate 1 (fluorescence units) = 2.03e7; resting calcium signal, replicate 2 (fluorescence units) = 1.56e7. For CG31111 [DRSC14649], the entry reads calcium entry signal, replicate 1 (fluorescence units) = 3.31e7; calcium entry signal, replicate 2 (fluorescence units) = 2.41e7; resting calcium signal, replicate 1 (fluorescence units) = 1.71e7; resting calcium signal, replicate 2 (fluorescence units) = 1.40e7. Silencing of Achl (Achilles) [DRSC06665] came out at: calcium entry signal, replicate 1 (fluorescence units) = 2.53e7; calcium entry signal, replicate 2 (fluorescence units) = 3.12e7; resting calcium signal, replicate 1 (fluorescence units) = 1.29e7; resting calcium signal, replicate 2 (fluorescence units) = 1.35e7. Depletion of CG9919 [DRSC20219] came out at: calcium entry signal, replicate 1 (fluorescence units) = 5.29e7; calcium entry signal, replicate 2 (fluorescence units) = 2.65e7; resting calcium signal, replicate 1 (fluorescence units) = 2.48e7; resting calcium signal, replicate 2 (fluorescence units) = 1.17e7.
